From PubChem BioAssay AID1117319 (Southern Research Institute, 2015)
The whole screen tested about 260,000 compounds, of which about 1,500 (0.58%) were called active. Inconclusive means that the source gave no clear call. Such entries were picked first, then a sample of the others.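 The calls were made as follows: active = inhibition above a set limit at one or more doses, reproduced on every date tested; inconclusive = results disagree between test dates, or hit never tested in dose response; inactive = the rest.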

The chains behind the UniProt entries cited, without tags or fusion partners. Where a name states a change or a piece, a line headed by the entry shows the natural chain unless it says otherwise.
UniProt P69720: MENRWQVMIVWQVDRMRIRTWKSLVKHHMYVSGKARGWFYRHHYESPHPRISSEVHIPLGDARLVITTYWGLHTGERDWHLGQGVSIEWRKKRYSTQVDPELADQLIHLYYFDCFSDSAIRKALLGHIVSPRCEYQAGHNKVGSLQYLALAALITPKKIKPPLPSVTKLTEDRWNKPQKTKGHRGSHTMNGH
UniProt P69721: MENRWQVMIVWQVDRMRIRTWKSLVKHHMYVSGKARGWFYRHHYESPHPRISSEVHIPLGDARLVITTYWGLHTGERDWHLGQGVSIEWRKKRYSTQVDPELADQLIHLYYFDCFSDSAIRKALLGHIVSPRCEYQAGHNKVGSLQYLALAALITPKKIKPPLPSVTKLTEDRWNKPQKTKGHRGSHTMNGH
UniProt P69722: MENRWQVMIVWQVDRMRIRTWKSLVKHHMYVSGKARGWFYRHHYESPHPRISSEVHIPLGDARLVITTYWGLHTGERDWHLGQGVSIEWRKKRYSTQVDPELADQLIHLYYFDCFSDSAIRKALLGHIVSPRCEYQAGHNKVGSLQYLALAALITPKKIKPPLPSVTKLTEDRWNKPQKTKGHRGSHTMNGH
UniProt P69723: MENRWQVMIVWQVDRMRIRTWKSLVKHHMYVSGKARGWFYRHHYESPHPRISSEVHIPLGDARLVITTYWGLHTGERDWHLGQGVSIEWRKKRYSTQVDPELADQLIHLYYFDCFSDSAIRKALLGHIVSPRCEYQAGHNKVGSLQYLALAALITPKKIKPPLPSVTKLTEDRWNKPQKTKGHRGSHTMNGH
UniProt Q9HC16: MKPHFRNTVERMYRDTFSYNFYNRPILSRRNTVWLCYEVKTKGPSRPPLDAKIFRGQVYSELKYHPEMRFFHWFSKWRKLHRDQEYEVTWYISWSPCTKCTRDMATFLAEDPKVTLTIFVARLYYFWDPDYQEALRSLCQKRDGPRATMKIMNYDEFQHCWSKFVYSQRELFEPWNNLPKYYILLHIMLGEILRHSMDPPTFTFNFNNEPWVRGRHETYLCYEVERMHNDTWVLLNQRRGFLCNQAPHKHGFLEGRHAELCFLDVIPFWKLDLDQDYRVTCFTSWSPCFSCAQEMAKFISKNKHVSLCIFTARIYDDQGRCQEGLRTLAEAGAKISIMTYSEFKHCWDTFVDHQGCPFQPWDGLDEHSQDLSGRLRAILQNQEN

target: Virion infectivity factor (Human immunodeficiency virus type 1 group M subtype B (isolate BH10)) + Virion infectivity factor (Human immunodeficiency virus type 1 group M subtype B (isolate BRU/LAI)) + Virion infectivity factor (Human immunodeficiency virus type 1 group M subtype B (isolate PCV12)) + Virion infectivity factor (Human immunodeficiency virus type 1 group M subtype B (isolate HXB2)) + DNA dC->dU-editing enzyme APOBEC-3G (Homo sapiens) (UniProt P69720+P69721+P69722+P69723+Q9HC16); experiment: inhibitors of Vif binding to APOBEC3G peptide, primary screen, biochemical, TR-FRET, GST-Vif 1-94, biotin-A3G peptide, dose response retest (AID 1117319); conditions: hits give high values;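 also: Vif residues 1-94 fused to GST binding biotinylated APOBEC3G peptide 110-148; 0% = full assay without inhibitor and 100% = GST in place of GST-Vif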

| SMILES | inhibition |
| --- | --- |
| Cn1c(-c2ccc(F)cc2)cnc1NCc1ccccc1 | inconclusive: 43.5% |
| NC(=O)CN(c1ccc([N+](=O)[O-])cc1)S(=O)(=O)c1ccccc1 | inconclusive: 43% |
| COc1ccc(-n2c(/C=C3\C(=O)N(C)c4ccccc43)nc3ccccc3c2=O)cc1 | inconclusive: 33.8% |
| Nc1cc(N)nc(CS)n1 | inconclusive: 42.8% |
| O=CC1=C(N2CCOCC2)/C(=C/c2ccc(Cl)cc2)CC1 | inconclusive: 34.9% |
| Cn1cccc1CC(=O)N/N=C/c1ccco1 | inconclusive: 62.5% |
| C/C=C/C(=O)OCC(=O)Nc1cc([N+](=O)[O-])ccc1Cl | inconclusive: 51.9% |
| Cc1cc(NC(=O)C2CC2)ncc1NC(=O)C12CC3CC(CC(C3)C1)C2 | inconclusive: 57.7% |
| N#Cc1c(NC(=O)Cn2c(=O)oc3ccccc32)oc(-c2ccccc2)c1-c1ccccc1 | inconclusive: 38% |
| N=C1C=CC=C2C1=NC1(CCCCC1)N2O | inconclusive: 66.4% |
| Fc1ccccc1OCCCCn1cncn1 | inconclusive: 37% |
| CCOC(=O)N1CCN(C(=O)CCCN2C(=O)CSc3nc(C)cc(C)c32)CC1 | inconclusive: 39.2% |
| CCSc1nc2[nH]ncc2c(=O)[nH]1 | inconclusive: 39.1% |
| Cn1c(N)c(C(=O)COC(=O)Cc2ccc(Cl)cc2)c(=O)n(C)c1=O | inactive: 0.17% |
| Cn1c(Cl)cnc1C(O)(c1ccccc1)c1ccccc1 | inconclusive: 51.6% |
| CCOC(=O)c1c(C)nc2sc3c(=O)n(-c4ccc(C(C)=O)cc4)nnc3c2c1-c1ccc(OC)cc1 | inconclusive: 35.2% |
| CCOC(=O)CNC(=O)N1c2ccccc2Sc2ccccc21 | inconclusive: 41.3% |
| Cn1ccnc1SCC(=O)Nc1ccc2c(c1)COC2=O | inconclusive: 46.9% |
| Cc1ccccc1C(=O)Nc1nnc(CC(=O)N/N=C/c2ccco2)s1 | inconclusive: 35.5% |
| O=c1[nH]cc(F)c(=O)[nH]1 | inconclusive: 36.1% |
| COCCCNC(=S)NCCc1ccc(F)cc1 | inconclusive: 63.6% |
| Nn1cnnc1N/N=C/c1cc([N+](=O)[O-])c(Cl)cc1Cl | inconclusive: 46.7% |
| CC(=O)c1ccc(NC(=S)Nc2ccc(N3CCOCC3)cc2)cc1 | inconclusive: 33.5% |
| CCc1cccc(C)c1NC(=O)CO/N=C(\N)CC(=O)NC1CCCCC1 | inactive: -0.04% |

| SMILES | inhibition |
| --- | --- |
| Cc1ccc(-c2csc3ncnc(NS(=O)(=O)c4ccc(Cl)cc4)c23)cc1 | inconclusive: 46.8% |
| O=C(C1c2ccccc2Oc2ccccc21)N1CCN(c2ccc(Cl)cc2)CC1 | inconclusive: 35.8% |
| CC(=O)Nc1cccc(C(=O)OCc2ccc(C(=O)Oc3ccc(Cl)cc3)cc2)c1 | inconclusive: 39% |
| Cc1ccc(NC(=O)CN2C(=O)S/C(=C/c3ccc(-c4cc(C(=O)O)ccc4C)o3)C2=O)cc1C | inconclusive: 53.8% |
| Cc1c(CC(=O)O)c(=O)oc2cc3oc4c(c3cc12)CCCC4 | inconclusive: 43.3% |
| CN(C)c1ccnc(Oc2ccccc2)c1C#N | inconclusive: 46.6% |
| Cc1cccc(-n2nc3c(c2NC(=O)c2ccc(S(=O)(=O)N4CCOCC4)cc2)CSC3)c1C | inconclusive: 61.3% |
| O=C1CCC/C1=C/Nc1cccc(F)c1 | inconclusive: 39.8% |
| COc1ccc(NC(=O)C(NC(=O)c2ccc(=O)[nH]c2)c2ccccc2)cc1 (stereo not drawn) | inconclusive: 36.7% |
| CCCCC1=CC2=CC(=O)C(C)(OC(=O)CC)C(=O)C2=CN1C1CCCC1 (stereo not drawn) | inconclusive: 47.7% |
| CS(=O)Cc1cc(Oc2ccccc2)nc(-c2ccncc2)n1 (stereo not drawn) | inconclusive: 51.9% |
| NC(Cc1c[nH]c2ccccc12)C(=O)NCc1ccco1 (stereo not drawn) | inconclusive: 41.9% |
| O=S(=O)(Nc1nc2ccccc2s1)c1cnc(Cl)c(Br)c1 | inconclusive: 52.8% |
| CCN(CC)S(=O)(=O)c1ccc(NC(=O)c2ccccc2N(C)S(C)(=O)=O)cc1 | inconclusive: 35.2% |
| CCOC(=O)c1c(NC(=O)N/N=C/c2ccc(O)c(OC)c2)sc(C(C)=O)c1C | inconclusive: 43% |
| Cc1ccc(CCn2c3c(c4ccccc42)CN(C)CC3)cn1 | inconclusive: 58.3% |
| CCOC(=O)CCS(=O)(=O)c1ccc(-c2ccc(S(=O)(=O)CCC(=O)OCC)cc2)cc1 | inconclusive: 39% |
| CN1c2cccc3cccc(c23)N(C)C1(C)C | inconclusive: 57.6% |
| CCN(CC)S(=O)(=O)c1ccc(N2CCN(CCOc3ccc(OC)cc3)CC2)nc1 | inconclusive: 42.5% |
| COc1cnc(-c2ccccc2)[nH]c1=O | inconclusive: 50.9% |
| Cc1cn([C@H]2C[C@H](O)[C@@H](CNCc3ccccc3)O2)c(=O)[nH]c1=O | inactive: -4.57% |
| CCOc1ccccc1NC(=O)CN(Cc1ccccc1)S(C)(=O)=O | inconclusive: 42% |
| CCOC(=O)CSc1nc2ccc(N3CCOCC3)cc2c(=O)n1Cc1ccc2c(c1)OCO2 | inconclusive: 44.3% |
| O=C(CCc1ccccc1)Nc1ncn[nH]1 | inconclusive: 33.7% |

By substructure, those above with a COOH group

| SMILES | inhibition |
| --- | --- |
| Cc1ccc(NC(=O)CN2C(=O)S/C(=C/c3ccc(-c4cc(C(=O)O)ccc4C)o3)C2=O)cc1C | inconclusive: 53.8% |
| Cc1c(CC(=O)O)c(=O)oc2cc3oc4c(c3cc12)CCCC4 | inconclusive: 43.3% |

Next part

| SMILES | inhibition |
| --- | --- |
| CC(C)c1cc(N=NC(N)=O)cc(C(C)C)c1O | inconclusive: 43.2% |
| CCOc1ccc(S(=O)(=O)Nc2ccc3c(c2)OCO3)c2cccnc12 | inconclusive: 40.3% |
| CCC(=O)Nc1nc2nc(C)cc(=O)n2[nH]1 | inconclusive: 49.9% |
| O=Cc1cccn1-c1cccc([N+](=O)[O-])c1 | inconclusive: 36.8% |
| O=c1[nH]c2ccc(NC(=S)NC3CCCCC3)cc2[nH]1 | inconclusive: 37.6% |
| CCOC(=O)C1=C(C)N=C2SC(C(=O)OC)=CC(=O)N2C1c1ccc(OC)cc1 (stereo not drawn) | inactive: 7.8% |
| C/C(=N\NC(=O)CNC(=O)c1ccc(Br)cc1)c1ccco1 | inconclusive: 44.3% |
| CC(C)(C)Nc1c(N)c(=O)oc2ccccc12 | inconclusive: 39.1% |
| O=C(N/N=C/c1ccccn1)c1ccc(Br)o1 | inconclusive: 58.3% |
| Cc1nc(-n2cc(F)c(=O)[nH]c2=O)c2nc(C)oc2n1 | inconclusive: 36.7% |
| O=C(Nc1ccc(O)c(C(=O)O)c1)Oc1ccccc1 | inconclusive: 35.2% |
| CS(=O)(=O)Oc1ccc2c(c1)O/C(=C\C=C\c1ccccc1)C2=O | inconclusive: 37.8% |
| CCCc1nnc(NC(=O)CCC(=O)N2CCN(CCOc3ccc(C)cc3)CC2)s1 | inconclusive: 35.6% |
| CN(CCc1ccccn1)C(=O)Nc1cccc(Cl)c1 | inconclusive: 37.4% |
| O=C(Nc1nc2ccccc2[nH]1)c1ccc(Cl)c([N+](=O)[O-])c1 | inconclusive: 56.7% |
| COCCCn1c(=O)c2ccccc2c2ccccc2c1=O | inconclusive: 33.8% |
| Cc1ncc(C[n+]2csc(CCOC(=O)C34CC5CC(CC(C5)C3)C4)c2C)c(N)n1 | inconclusive: 36% |
| Cc1cc(/C=C2\SC(=S)NC2=O)c(C)n1-c1cccc(O)c1 | inconclusive: 37.2% |
| O=S(=O)(/N=C(/Nc1cccc2ccccc12)c1ccccc1)c1ccc(Br)cc1 | inactive: 3.03% |
| Cc1ccc(CNC(=O)C(=O)NCCCn2ccnc2)cc1 | inconclusive: 34.1% |
| Oc1ccccc1/C=N/Nc1cccc2cccnc12 | inconclusive: 60.1% |
| O=C(Nc1ccc2nsnc2c1)N1CCCCC1 | inconclusive: 50.5% |
| CC(=O)c1ccc(N2CCN(C(=O)Nc3ccc(F)cc3F)CC2)cc1 | inconclusive: 36.9% |
| COc1ccc(NC(=O)c2cccc(Cn3cc(Br)cn3)c2)cn1 | inconclusive: 50.6% |

| SMILES | inhibition |
| --- | --- |
| COc1cccc(NC(=O)NC(C)C2CC3CCC2C3)c1 (stereo not drawn) | inconclusive: 48.6% |
| Cn1c(CNC(=O)Nc2ccccc2Cl)nnc1SCc1ccccc1 | inconclusive: 47% |
| O=C1CNC(=O)/C(=C/c2ccco2)N1 | inconclusive: 59.9% |
| O=[N+]([O-])c1ccc(N/N=C2/CCCCC2c2ccccn2)cc1 (stereo not drawn) | inconclusive: 44.3% |
| O=C(c1cccc(S(=O)(=O)Nc2ccc(F)cc2)c1)N1CCCC1 | inconclusive: 42% |
| Cc1nn(-c2ccccc2)c2sc(C(=O)N3CCCCC3)cc12 | inactive: -2.58% |
| Cc1cc(C)nc(Nc2nc(=O)c3ccccc3s2)n1 | inconclusive: 59.5% |
| CCOCCSc1nnc2nc(C)cc(C)n12 | inconclusive: 38.5% |
| Cc1ccc(/C=C/C(=O)Nc2ccc([N+](=O)[O-])cc2)o1 | inconclusive: 33.1% |
| CCCOc1ccc(C2C(=O)N(C3CCCCC3)CC(=O)N2CCCOCC)cc1OC (stereo not drawn) | inconclusive: 52.4% |
| CC1=C(C(=O)Nc2ccccc2F)C(c2ccsc2)C2=C(CC(C)(C)CC2=O)N1 (stereo not drawn) | inactive: 0.63% |
| COc1ccc(NC(=O)Cc2nnc(N)s2)cc1 | inconclusive: 35.2% |
| COc1ccccc1-c1nc(C#N)c(N2CCN(c3cccc(Cl)c3)CC2)o1 | inconclusive: 62.4% |
| CC1CN(Cc2ccco2)C(=S)NC1=O (stereo not drawn) | inactive: 1.05% |
| Cc1ccc2[nH]c3c(NCc4ccco4)ncnc3c2c1 | inconclusive: 59.5% |
| O=C(c1ccc(F)c(S(=O)(=O)N2CCOCC2)c1)N1CCN(c2ncccn2)CC1 | inconclusive: 38.9% |
| Cc1ccsc1C(=O)N1CCN(C(=O)c2ccco2)CC1 | inconclusive: 33.7% |
| COCCn1c(COc2ccc(Cl)cc2)nnc1SCC(N)=O | inconclusive: 48% |
| O=C(COc1ccccc1C(=O)Nc1ccccc1)c1ccc(F)cc1 | inconclusive: 34.8% |
| O=C(Nc1ccc(S(=O)(=O)NC2=NCCCCC2)cc1)c1ccc(=O)[nH]c1 | inconclusive: 38.9% |
| COCCNc1nc(-c2cc(C)n(CCc3ccc(OC)cc3)c2C)cs1 | inconclusive: 37.4% |
